Laboratory results published in PubChem BioAssay AID504327 (National Center for Advancing Translational Sciences (NCATS), 2011).
Out of some 390,000 compounds screened, about 820 (0.21%) were called active. The shares of active, inactive and inconclusive entries below differ from those in the screen. Calls follow the shape of the dose curve; as a rule, active = well fitted inhibition curve with a large enough effect; inconclusive = small, poorly fitted or top-dose-only effect, or another doubt; inactive = no such curve, though single readings can be large or run the other way. A potency beside an inconclusive call is a rough fit, not a confirmed value.
% is scaled to controls: 0 for no effect and ±100 for the full control effect; potency is read from the fitted curve at half-maximal effect.

Sequences of proteins named here, by UniProt entry; tags and fusion partners are left off.
UniProt Q92830, whole entry, looked up: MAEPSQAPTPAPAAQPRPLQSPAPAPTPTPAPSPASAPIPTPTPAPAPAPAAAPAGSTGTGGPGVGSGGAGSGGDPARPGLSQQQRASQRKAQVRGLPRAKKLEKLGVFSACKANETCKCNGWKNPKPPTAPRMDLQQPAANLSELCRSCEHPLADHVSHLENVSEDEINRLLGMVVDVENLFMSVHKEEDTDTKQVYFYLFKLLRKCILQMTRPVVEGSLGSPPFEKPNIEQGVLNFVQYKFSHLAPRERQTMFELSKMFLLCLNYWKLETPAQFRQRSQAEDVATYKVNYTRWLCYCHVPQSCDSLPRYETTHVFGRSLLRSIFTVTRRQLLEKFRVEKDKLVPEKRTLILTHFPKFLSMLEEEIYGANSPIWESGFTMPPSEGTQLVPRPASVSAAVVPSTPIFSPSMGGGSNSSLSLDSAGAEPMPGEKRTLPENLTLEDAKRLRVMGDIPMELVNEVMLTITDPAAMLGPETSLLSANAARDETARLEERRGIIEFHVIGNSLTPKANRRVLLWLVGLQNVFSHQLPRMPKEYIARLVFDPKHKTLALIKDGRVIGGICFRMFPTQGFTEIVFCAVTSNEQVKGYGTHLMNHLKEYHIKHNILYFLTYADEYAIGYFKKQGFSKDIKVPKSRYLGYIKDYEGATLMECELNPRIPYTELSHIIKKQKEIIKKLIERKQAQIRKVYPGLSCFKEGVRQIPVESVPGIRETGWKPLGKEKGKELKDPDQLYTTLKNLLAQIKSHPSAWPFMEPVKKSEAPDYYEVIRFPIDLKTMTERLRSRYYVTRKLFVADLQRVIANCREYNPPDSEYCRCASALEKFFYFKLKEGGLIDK

What follows are compounds tested against Histone acetyltransferase KAT2A (Homo sapiens) (UniProt Q92830) (assay: qHTS Assay for Inhibitors of GCN5L2). Settings: GCN5L2 HAT assay, ThioGlo1 CoA-SH fluorescence; activity change, negative = inhibition: at 58.9 µM (top of the series) unless noted.
Method in brief: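 GCN5L2 (20nM final) in 50mM HEPES, 0.1mM EDTA pH 7.5, 0.01% Tween-20 was preincubated 15 min at room temperature with compound, then given ThioGlo1 (50uM), H3(1-25) peptide (75uM) and acetyl-CoA (70uM); CoA-thiol fluorescence (Ex340/Em540) was read at 0 and 20 min.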
For `Cc1cc2c(c(=O)o1)C1O[C@](c3ccsc3)(Cc3cc(C#N)ccc31)O2`, the Potency was inconclusive: 0.141 µM [inhibitor, single point]. In the case of `COc1ccc(OC)c(-c2csc(NC(=O)COC(=O)c3ccc(NC(=O)CC#N)cc3)n2)c1`, the Potency is reported as inconclusive: 31.6 µM [inhibitor, single point]. For `C[C@H]1C(c2ccccc2)=NN(c2ccccc2)[C@@H]1CO`, the Potency was inconclusive: 35.5 µM [inhibitor, partial curve, poor fit]. With `Cc1nc2c(C(=O)O)cnn2c(C)c1Cc1ccccc1F` the Potency was inconclusive: 28.2 µM [inhibitor, partial curve]. With `CC1CC(C)CN(S(=O)(=O)c2ccc(NC(=O)CCN3C(=O)C4CC=CCC4C3=O)cc2)C1` (stereo not given) the Potency was inconclusive: 39.8 µM [inhibitor, single point]. `CCOC(=O)C1=C(C)N=c2s/c(=C\c3ccc(OCC(=O)O)cc3)c(=O)n2C1c1ccc(OC(C)C)cc1` (stereo not given) was tested, and the Potency was inconclusive: 35.5 µM [inhibitor, single point]. For `Cc1onc(-c2ccccc2Cl)c1C(=O)Nc1nc2c(s1)CCCC2`, the Potency was inconclusive: 0.794 µM [inhibitor, full curve, poor fit]. `CCCCn1c(NC(=O)c2ccccc2)c(C#N)c2nc3ccccc3nc21` was tested, and the Potency was inconclusive: 28.2 µM [inhibitor, single point]. `COC(=O)c1c(OC)cc2c(c1C)Oc1c(Cl)c(O)c(Cl)c(C)c1C(=O)O2` was tested, and the Potency was inconclusive: 25.1 µM [inhibitor, partial curve]. With `CCCN1CCC(NC(=O)CCc2nnc(-c3ccccc3)o2)CC1` the Potency was inconclusive: 4.47 µM [inhibitor, single point]. In the case of `O=C(O)c1ccc(COc2ccccc2/C=C2/NC(=O)N(c3cccc(Cl)c3)C2=O)cc1`, the Potency is reported as inconclusive: 39.8 µM [inhibitor, single point]. In the case of `CCOC(=O)c1c(-c2ccccc2)csc1NC(=O)c1cc(-c2ccc(C)c(F)c2)on1`, the “activity change, negative = inhibition” value is reported as inactive: 0.829%. For `C=CC1=C(C)C2=Cc3c(C=C)c(C)c4[n]3[Sn+2][n]3c(c(C)c(CCC(=O)O)c3=CC3=NC(=C4)C(C)=C3CCC(=O)O)=CC1=N2`, the Potency was inconclusive: 39.8 µM [inhibitor, single point]. `Cc1ccc2c(Cl)cc(Cl)c(OCC(=O)NCc3ccco3)c2n1` was tested, and the Potency was inconclusive: 31.6 µM [inhibitor, single point]. In the case of `O=C(NC(NC(=S)Nc1ccc(Cl)c(Cl)c1)C(Cl)(Cl)Cl)c1ccco1` (stereo not given), the Potency is reported as inconclusive: 7.08 µM [inhibitor, single point]. For `O=C(/C=C/c1ccco1)N(c1ccccn1)c1ccccn1`, the Potency was inconclusive: 35.5 µM [inhibitor, single point]. `O=C(c1ccco1)[C@@H]1[C@@H]2C(=O)N(c3ccc(F)cc3)C(=O)[C@@H]2C2c3ccccc3C=CN21` (stereo not given in full) was tested, and the “activity change, negative = inhibition” value was inactive: -2.53%. `CN(C(=O)CSc1nc(-c2ccc(C(C)(C)C)cc2)c(C#N)c(=O)[nH]1)C1CCCCC1` was tested, and the Potency was inconclusive: 39.8 µM [inhibitor, single point]. With `CCOC(=O)c1[nH]c(C)c(C(=O)Nc2ccc3c(c2)OCCO3)c1C` the Potency was inconclusive: 5.01 µM [inhibitor, single point]. For `CCN(CC)c1ccc(NC(=O)CCCCCN2C(=O)c3ccccc3C2=O)cc1`, the Potency was inconclusive: 0.794 µM [inhibitor, single point]. For `COc1ccccc1N1CCN(C(=O)c2ccc3nc(-c4ccco4)c(-c4ccco4)nc3c2)CC1`, the Potency was inconclusive: 31.6 µM [inhibitor, single point]. In the case of `Cc1ccccc1-c1cncnc1N(C)Cc1ccco1`, the Potency is reported as inconclusive: 31.6 µM [inhibitor, single point]. With `C#CC(=O)N(c1cc(OC)ccc1OC)C(C(=O)NC1CCCC1)c1cccs1` (stereo not given) the Potency was inconclusive: 0.562 µM [inhibitor, single point]. In the case of `CCN(CC(=O)NC1CCS(=O)(=O)C1)S(=O)(=O)c1ccccc1Cl` (stereo not given), the “activity change, negative = inhibition” value is reported as inactive: -20%. For `CCOC(=O)c1ccc(NC(=O)CC2S/C(=N/N=C3/NC(=O)CS3)NC2=O)cc1` (stereo not given), the Potency was inconclusive: 35.5 µM [inhibitor, single point]. With `Cc1cc(C)c(S(=O)(=O)n2cc(C(C)C(N)C(=O)O)c3ccccc32)c(C)c1` (stereo not given) the Potency was inconclusive: 0.631 µM [inhibitor, full curve, poor fit]. `COc1ccc(NC(=O)[C@@H](NC(=O)N2C[C@H]3C[C@@H](C2)c2cccc(=O)n2C3)C(C)C)cc1OC` was tested, and the Potency was inconclusive: 39.8 µM [inhibitor, single point]. For `Cc1ccccc1Cn1ccc(NC(=O)c2cnn3c(C(F)(F)F)cc(-c4ccco4)nc23)n1`, the “activity change, negative = inhibition” value was inactive: -4.46%. `CN(CC(=O)Nc1ccccc1N1CCOCC1)S(=O)(=O)c1ccc(F)cc1` was tested, and the Potency was inconclusive: 0.398 µM [inhibitor, partial curve, poor fit]. With `O=C(COc1ccc([N+](=O)[O-])cc1)Nc1nnc(-c2cccnc2)s1` the Potency was inconclusive: 28.2 µM [inhibitor, single point]. With `Cn1c(=O)c2c(SC3CCCC3)nc(C3CC3)nc2n(C)c1=O` the “activity change, negative = inhibition” value was inactive: -3.1%. `CC1(C)CC(=O)C2=C(C1)Nc1ccccc1S2` was tested, and the “activity change, negative = inhibition” value was inactive: -0.852%. In the case of `Cc1cc(NC(=O)CCCOc2ccc(Cl)cc2Cl)no1`, the “activity change, negative = inhibition” value is reported as inactive: -4.65%. In the case of `C#CCOCCOCCOCCNc1nc(N2CCN(C(=O)CCCCCCCCCCNC(=O)[C@H]([C@@H](C)CC)n3cc(CCCCCN)nn3)CC2)nc(N2CCN(C(=O)CCCCCCCCCCNC(=O)[C@H](CO)n3cc(CCCCCN)nn3)CC2)n1`, the “activity change, negative = inhibition” value is reported as inactive: -2.08%. For `O=C(Nc1nc2nccc(-c3ccccc3)n2n1)c1ccccc1`, the “activity change, negative = inhibition” value was inactive: -2.85%. For `N/C(=N\OC(=O)Cc1ccc(Cl)cc1)c1cccnc1`, the Potency was inconclusive: 12.6 µM [inhibitor, single point]. In the case of `CCN(CC)S(=O)(=O)c1ccc(C)c(NC(=O)CNc2cccc(S(=O)(=O)N3CCOCC3)c2)c1`, the “activity change, negative = inhibition” value is reported as inactive: 0.292%. With `CO/N=C(\C(=O)N[C@@H]1C(=O)N2C(C(=O)O)=C(COC(C)=O)CS[C@H]12)c1csc(N)n1` the Potency was “inactive”. In the case of `Cc1ccc2oc(-c3cccc(NC(=S)NC(=O)c4cccs4)c3)nc2c1`, the “activity change, negative = inhibition” value is reported as inactive: 0.352%. In the case of `O=C(CCN1C(=O)c2cccc3cccc(c23)C1=O)N1CCN(Cc2ccc3c(c2)OCO3)CC1`, the Potency is reported as inconclusive: 1 µM [inhibitor, full curve, poor fit]. In the case of `CCOc1ccc(C(=O)N2CCCC(c3nc(-c4ccc(C)o4)no3)C2)cc1` (stereo not given), the “activity change, negative = inhibition” value is reported as inactive: 3.1%. With `CCOC(=O)c1ccc(NC(=O)CC2C(=O)N(c3ccc(C)cc3)C(=O)N2C2CCCC2)cc1` (stereo not given) the “activity change, negative = inhibition” value was inactive: -9.94%. For `CCOc1ccccc1N(C)C(=O)c1cn(C)c(=O)c2ccccc12`, the Potency was inconclusive: 1 µM [inhibitor, single point]. With `COc1ccc(OCCOc2ccc(/C=C3\C(=N)N4N=C(C)SC4=NC3=O)cc2)cc1` the “activity change, negative = inhibition” value was inactive: -2.93%. With `COc1cc(CNc2ccc(O)cc2)cc(Br)c1OCc1ccccc1F` the Potency was inconclusive: 39.8 µM [inhibitor, single point]. `O=C1OC(c2ccc(F)cc2)=C/C1=C\c1ccc([N+](=O)[O-])o1` was tested, and the Potency was inconclusive: 31.6 µM [inhibitor, single point]. With `Cn1c(=O)n(C)c2cc(NC(=O)c3cc4ccccc4o3)ccc21` the Potency was inconclusive: 7.08 µM [inhibitor, single point]. In the case of `CN(C)c1ccc(NC(N)=S)cc1`, the “activity change, negative = inhibition” value is reported as inactive: -3.02%. In the case of `Cc1cc2nn(-c3ccc(F)cc3)nc2cc1N`, the Potency is reported as inconclusive: 31.6 µM [inhibitor, single point]. In the case of `O=C(Nc1cccc(/C=C/c2nc3ccccc3c(=O)[nH]2)c1)c1ccccc1Cl`, the Potency is reported as inconclusive: 7.08 µM [inhibitor, single point]. In the case of `O=C(COc1ncnc2sccc12)NC1CCS(=O)(=O)C1` (stereo not given), the Potency is reported as inconclusive: 39.8 µM [inhibitor, single point]. In the case of `Cn1c(=O)c(CCc2ccccc2)nc2cnc(N3CCNCC3)nc21`, the Potency is reported as inconclusive: 25.1 µM [inhibitor, single point]. For `O=P(O)(COc1ccccc1)COc1ccccc1`, the Potency was inconclusive: 31.6 µM [inhibitor, single point]. In the case of `COC(=O)c1cc(S(=O)(=O)N2CCN(c3cccc(C)c3C)CC2)c[nH]1`, the Potency is reported as inconclusive: 0.794 µM [inhibitor, single point]. In the case of `O=C1CSC(=S)N1/N=C/c1cc(Br)ccc1O`, the Potency is reported as inconclusive: 39.8 µM [inhibitor, single point]. In the case of `Cc1ccc(S(=O)(=O)Nc2cccc(-c3ccc4nnc(C)n4n3)c2)s1`, the “activity change, negative = inhibition” value is reported as inactive: -0.279%. With `CCOC(=O)c1ccc2[nH]c3c(c2c1)CCCC3` the Potency was inconclusive: 3.98 µM [inhibitor, partial curve]. In the case of `CN(c1ccccc1)S(=O)(=O)c1ccc(C(=O)Nc2ncccc2O)cc1`, the Potency is reported as inconclusive: 7.08 µM [inhibitor, full curve]. In the case of `COc1cc(CNCCNC(=O)c2cccs2)cc(OC)c1OC`, the Potency is reported as inconclusive: 5.62 µM [inhibitor, full curve, poor fit]. For `O=C(NNC(=O)c1ccc(SCC2CCCO2)c([N+](=O)[O-])c1)c1ccc(F)cc1` (stereo not given), the “activity change, negative = inhibition” value was inactive: 1.89%. For `CCc1c(O)c(-c2ccccc2)c(=O)n(-c2ccccn2)c1-c1ccccc1`, the Potency was inconclusive: 3.55 µM [inhibitor, single point]. With `Cc1ccc(C2CC(=O)NC(SCc3ccccc3)=C2C#N)o1` (stereo not given) the “activity change, negative = inhibition” value was inactive: -5.41%. In the case of `Cc1cc(OCCOc2cccc3cccnc23)c(C)cc1Cl`, the activity change, negative = inhibition is reported as inconclusive: -107% [inhibitor] [at 0.501 µM]. With `C1CCC(N=C(NC23CC4CC(CC(C4)C2)C3)N2CCOCC2)CC1` the “activity change, negative = inhibition” value was inactive: -9.32%. With `O=C(NC(Cc1ccccc1)C(=O)O)/C(=C\c1cccc([N+](=O)[O-])c1)NC(=O)c1ccco1` (stereo not given) the Potency was inconclusive: 35.5 µM [inhibitor, single point].
